Test results: paper doi:10.1101/363176
Results are given in words; binding and its absence hold for the method and conditions named. For some assays here: Binding seen in cells or lysates may run through a third protein. Some binding calls cover weakened binding; strength is not graded here. Tags and fused reporters may be left off the sequences shown.

By UniProt entry, the sequences of proteins in these tests, tags left out.
UniProt Q9NRC8: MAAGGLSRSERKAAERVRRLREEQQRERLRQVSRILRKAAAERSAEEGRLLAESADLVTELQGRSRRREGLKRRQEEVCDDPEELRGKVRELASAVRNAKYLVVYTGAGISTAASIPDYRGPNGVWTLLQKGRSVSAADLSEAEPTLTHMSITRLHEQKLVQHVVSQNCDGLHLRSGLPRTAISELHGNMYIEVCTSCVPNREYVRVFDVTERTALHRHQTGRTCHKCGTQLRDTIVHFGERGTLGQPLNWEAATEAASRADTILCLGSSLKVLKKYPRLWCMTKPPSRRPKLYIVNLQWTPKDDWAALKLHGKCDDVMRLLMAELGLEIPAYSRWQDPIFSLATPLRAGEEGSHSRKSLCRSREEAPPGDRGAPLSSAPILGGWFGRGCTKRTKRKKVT

Tests used:
FLAG-Cry1 (human) = biological target: T1, FLAG-Cry1 (human) (UniProt Q16526); assay: co-IP
T1 sequence: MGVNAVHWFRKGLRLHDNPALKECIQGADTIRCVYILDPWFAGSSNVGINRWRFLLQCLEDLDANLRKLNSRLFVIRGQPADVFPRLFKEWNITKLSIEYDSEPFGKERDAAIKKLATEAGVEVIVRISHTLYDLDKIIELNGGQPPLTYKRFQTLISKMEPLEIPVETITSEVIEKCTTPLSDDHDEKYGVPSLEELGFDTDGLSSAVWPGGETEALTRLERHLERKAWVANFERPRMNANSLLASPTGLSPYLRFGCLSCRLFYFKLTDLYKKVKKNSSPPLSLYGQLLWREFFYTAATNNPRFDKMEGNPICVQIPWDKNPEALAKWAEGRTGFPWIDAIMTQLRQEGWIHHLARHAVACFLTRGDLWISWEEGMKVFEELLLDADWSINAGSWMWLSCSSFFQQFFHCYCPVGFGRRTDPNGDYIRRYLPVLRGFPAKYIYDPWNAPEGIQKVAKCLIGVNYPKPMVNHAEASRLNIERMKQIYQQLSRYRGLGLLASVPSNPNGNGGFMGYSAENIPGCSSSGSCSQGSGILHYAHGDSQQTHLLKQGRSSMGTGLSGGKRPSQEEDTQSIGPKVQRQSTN

GST-Sirt7 (human) = GST-Sirt7 (human) (UniProt Q9NRC8); assay: pull-down

HA-Sirt7 (from UniProt Q9NRC8 1-400)
binding (FLAG-Cry1 (human)): binds

B1: His-Cry1 (protein, UniProt Q16526 1-586)
chain: T1 sequence
binding (GST-Sirt7 (human)): binds
